# Measured values taken from patent US20030153551A1, “Method for treating ocular neovascular diseases” (priority 2002, published 2003).
# System: retinal neovascularization
# Experiment: Oxygen-induced ischemic retinopathy in mice, lectin staining of retinal endothelial cells with image analysis
# Type: in vivo, C57/BL6J mice
# Conditions: 600 mg/kg once a day for 5 days, gavage
# Description: Ophthalmol. Vis. Sci. 35, 101-111 (1994). […] N-benzoyl-staurosporine (NBS) is dissolved in dimethyl sulfoxide (DMSO) and diluted to final concentrations with water; the maximum concentration of DMSO is 1%. Vehicle (1% DMSO) or vehicle containing various concentrations of the drug (volume=10 μl per gram body weight) is placed in the stomach by gavage. Different mice are given 60, 300 or 600 mg of NBS per kg of body weight. As a control, a group of mice are given the vehicle without NBS.
# Some slides are counterstained with hematoxyln and all were mounted with Cytoseal.
smiles,measurement,value
"CO[C@@H]1[C@H](N(C)C(=O)c2ccccc2)C[C@H]2O[C@]1(C)n1c3ccccc3c3c4c(c5c6ccccc6n2c5c31)C(=O)NC4 [NBS, N-benzoyl-staurosporine]","inhibition of neovascularization (endothelial cells on the surface of the retina, high magnification)",complete inhibition of neovascularization
